Experimental data as given in patent US20100221248A1.

Molecular target: RIIIA 158F 176F tetramer (biotinylated human FcγRIIIA complexed to streptavidin-PE) (human)
Test: blocking assay, flow cytometry; competitor yeast-displayed IIIA537

B1: MBP-IIIA537 (designed binder, not shown: large carriers)
chain: LGENLYFQSVSDVPRDLEVVVATPTSLLINWDLPFSDSYRITYGETGGNSPVQGFTVPGTESIATISGLKPGVDYTITVYAVASSGSNSYPISINYRTEIDKPSQ
  binding: binds

No constants are given. Whether binding was seen depends on the method and setting. Binding can be weak; no strength is given. Tags and fused reporters may be left off the sequences shown.
